Data from publication PMC12140118.
These are yes or no findings as the source states them, for the method shown. Binding seen in cells or lysates may run through a third protein. A yes stands for co-enrichment or nearness to the bait. Other partners may have been found. For some of these results: Tags and fused reporters may be left off the sequences shown.

Sequences of proteins named here, by UniProt entry; tags and fusion partners are left off.
UniProt P21187: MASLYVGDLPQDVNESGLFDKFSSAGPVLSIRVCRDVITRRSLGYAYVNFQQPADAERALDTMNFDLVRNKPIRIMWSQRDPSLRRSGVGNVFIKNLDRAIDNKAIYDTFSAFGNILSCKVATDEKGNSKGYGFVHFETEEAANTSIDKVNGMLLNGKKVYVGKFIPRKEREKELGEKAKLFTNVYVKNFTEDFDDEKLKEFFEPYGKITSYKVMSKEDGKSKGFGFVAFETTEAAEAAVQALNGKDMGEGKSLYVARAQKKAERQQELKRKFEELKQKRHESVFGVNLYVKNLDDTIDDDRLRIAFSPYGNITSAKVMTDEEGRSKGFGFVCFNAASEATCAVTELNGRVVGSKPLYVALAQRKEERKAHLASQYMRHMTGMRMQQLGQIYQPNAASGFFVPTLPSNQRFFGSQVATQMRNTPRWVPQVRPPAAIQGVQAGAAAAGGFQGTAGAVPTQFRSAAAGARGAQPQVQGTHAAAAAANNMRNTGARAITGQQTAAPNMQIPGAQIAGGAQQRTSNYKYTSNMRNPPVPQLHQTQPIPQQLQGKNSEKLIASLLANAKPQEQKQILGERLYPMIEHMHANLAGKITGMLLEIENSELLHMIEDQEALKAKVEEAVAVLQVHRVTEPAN

T1: Top3β::eGFP (Drosophila Topoisomerase 3β, wild type, fused to eGFP) (Drosophila melanogaster) (UniProt O96651)
T1 sequence: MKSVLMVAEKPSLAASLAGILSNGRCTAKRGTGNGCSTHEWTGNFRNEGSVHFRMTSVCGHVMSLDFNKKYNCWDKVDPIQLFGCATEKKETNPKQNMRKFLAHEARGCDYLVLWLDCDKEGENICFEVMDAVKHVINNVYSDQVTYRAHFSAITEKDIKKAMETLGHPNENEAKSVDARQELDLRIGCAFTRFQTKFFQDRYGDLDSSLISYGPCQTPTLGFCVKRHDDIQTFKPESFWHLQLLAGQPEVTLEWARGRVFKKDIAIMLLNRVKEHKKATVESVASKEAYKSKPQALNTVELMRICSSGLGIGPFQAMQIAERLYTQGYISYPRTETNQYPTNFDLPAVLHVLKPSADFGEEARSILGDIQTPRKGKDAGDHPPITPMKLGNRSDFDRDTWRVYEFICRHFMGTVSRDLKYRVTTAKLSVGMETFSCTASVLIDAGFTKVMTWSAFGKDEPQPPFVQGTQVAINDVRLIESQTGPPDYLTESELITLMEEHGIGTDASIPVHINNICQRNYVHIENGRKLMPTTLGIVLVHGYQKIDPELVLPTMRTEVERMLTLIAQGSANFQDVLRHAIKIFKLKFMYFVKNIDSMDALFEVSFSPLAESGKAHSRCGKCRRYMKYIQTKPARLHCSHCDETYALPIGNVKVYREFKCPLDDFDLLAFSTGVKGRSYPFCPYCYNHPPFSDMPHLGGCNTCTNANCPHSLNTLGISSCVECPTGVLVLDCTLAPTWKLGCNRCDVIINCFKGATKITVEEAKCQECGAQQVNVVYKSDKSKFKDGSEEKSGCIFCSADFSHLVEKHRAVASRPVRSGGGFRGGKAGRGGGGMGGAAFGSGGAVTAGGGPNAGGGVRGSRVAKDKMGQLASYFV

T2: Top3β^Y332F::eGFP (Drosophila melanogaster) (UniProt O96651)
T2 sequence: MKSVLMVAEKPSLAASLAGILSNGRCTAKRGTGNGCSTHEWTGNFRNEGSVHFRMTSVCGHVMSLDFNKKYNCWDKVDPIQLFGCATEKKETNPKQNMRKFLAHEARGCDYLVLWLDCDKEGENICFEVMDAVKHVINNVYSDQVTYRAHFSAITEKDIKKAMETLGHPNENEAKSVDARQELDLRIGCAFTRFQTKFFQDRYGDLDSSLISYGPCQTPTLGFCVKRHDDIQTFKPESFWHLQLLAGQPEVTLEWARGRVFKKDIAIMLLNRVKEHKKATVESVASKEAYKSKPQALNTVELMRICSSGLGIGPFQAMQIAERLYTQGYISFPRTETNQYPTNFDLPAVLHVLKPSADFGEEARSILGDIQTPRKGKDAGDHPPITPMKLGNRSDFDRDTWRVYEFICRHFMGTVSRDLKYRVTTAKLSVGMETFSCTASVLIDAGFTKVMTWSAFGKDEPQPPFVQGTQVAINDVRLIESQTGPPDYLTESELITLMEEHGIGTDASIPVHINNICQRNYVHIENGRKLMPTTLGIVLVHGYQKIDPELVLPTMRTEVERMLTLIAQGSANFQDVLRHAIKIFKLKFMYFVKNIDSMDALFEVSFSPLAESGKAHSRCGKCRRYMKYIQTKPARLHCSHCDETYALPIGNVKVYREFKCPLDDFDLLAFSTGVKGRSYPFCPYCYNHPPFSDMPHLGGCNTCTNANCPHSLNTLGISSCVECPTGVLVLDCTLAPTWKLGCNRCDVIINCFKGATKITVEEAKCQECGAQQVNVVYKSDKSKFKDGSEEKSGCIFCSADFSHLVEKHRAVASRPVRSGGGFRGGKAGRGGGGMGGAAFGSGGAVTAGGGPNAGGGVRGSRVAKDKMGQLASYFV


Tests used:
Assay in all cases: affinity purification with mass spectrometry; Top3β::eGFP (wild type or mutant) captured from extracts of 0-2 hours old embryos by mouse anti-GFP antibody on Protein G magnetic beads; 25 mM Hepes pH 7.4, 150 mM NaCl, 0.5 mM EDTA, 1 mM DTT; 6 hours at 4°C; abundance compared with an eGFP-only control by quantitative MS
[1] = target: T1, Top3β::eGFP (Drosophila Topoisomerase 3β, wild type, fused to eGFP) (Drosophila melanogaster)
[2] = target: T2, Top3β^Y332F::eGFP (Drosophila melanogaster)
[3] = target: Top3β^ΔRGG::eGFP (Drosophila melanogaster) (UniProt O96651)

| binding [1] | binding [2] | binding [3] | Molecule |
| --- | --- | --- | --- |
| binds | binds | binds | Ago2 (protein, UniProt Q9VUQ5 1-1214) MGKKDKNKKGGQDSAAAPQPQQQQKQQQQRQQQPQQLQQPQQLQQPQQLQQPQQQQQQQPHQQQQQSSRQQPSTSSGGSRASGFQQGGQQQKSQDAEGWTAQKKQGKQQVQGWTKQGQQGGHQQGRQGQDGGYQQRPPGQQQGGHQQGRQGQEGGYQQRPPGQQQGGHQQGRQGQEGGYQQRPSGQQQGGHQQGRQGQEGGYQQRPPGQQQGGHQQGRQGQEGGYQQRPSGQQQGGHQQGRQGQEGGYQQRPPGQQQGGHQQGRQGQEGGYQQRPPGQQQGGHEQGRQGQEGGYQQRPSGQQQGGHQQGRQGQEGGYQQRPSGQQQGGHQQGRQGQEGGYQQRPSGQQQGGHQQGRQGQEGGYQQRPPGQQPNQTQSQGQYQSRGPPQQQQAAPLPLPPQPAGSIKRGTIGKPGQVGINYLDLDLSKMPSVAYHYDVKIMPERPKKFYRQAFEQFRVDQLGGAVLAYDGKASCYSVDKLPLNSQNPEVTVTDRNGRTLRYTIEIKETGDSTIDLKSLTTYMNDRIFDKPMRAMQCVEVVLASPCHNKAIRVGRSFFKMSDPNNRHELDDGYEALVGLYQAFMLGDRPFLNVDISHKSFPISMPMIEYLERFSLKAKINNTTNLDYSRRFLEPFLRGINVVYTPPQSFQSAPRVYRVNGLSRAPASSETFEHDGKKVTIASYFHSRNYPLKFPQLHCLNVGSSIKSILLPIELCSIEEGQALNRKDGATQVANMIKYAATSTNVRKRKIMNLLQYFQHNLDPTISRFGIRIANDFIVVSTRVLSPPQVEYHSKRFTMVKNGSWRMDGMKFLEPKPKAHKCAVLYCDPRSGRKMNYTQLNDFGNLIISQGKAVNISLDSDVTYRPFTDDERSLDTIFADLKRSQHDLAIVIIPQFRISYDTIKQKAELQHGILTQCIKQFTVERKCNNQTIGNILLKINSKLNGINHKIKDDPRLPMMKNTMYIGADVTHPSPDQREIPSVVGVAASHDPYGASYNMQYRLQRGALEEIEDMFSITLEHLRVYKEYRNAYPDHIIYYRDGVSDGQFPKIKNEELRCIKQACDKVGCKPKICCVIVVKRHHTRFFPSGDVTTSNKFNNVDPGTVVDRTIVHPNEMQFFMVSHQAIQGTAKPTRYNVIENTGNLDIDLLQQLTYNLCHMFPRCNRSVSYPAPAYLAHLVAARGRVYLTGTNRFLDLKKEYAKRTIVPEFMKKNPMYFV |
| binds | – | – | Cup (protein, UniProt Q9VMA3 1-1117) MQMAEAEQENGAGALKIATNAGATDRPAHQQLPLPVEDQQDEVLTPAEKGKFEYPPPPPPPTPVQAPLATKATALNASQEHDDDEANSEKWEDPCAPPPPPPLPTSAFLATGLGYLKLPAFKLKDALEKAITKLEANKRTLKASPESSRSIKNKNVVALEMLPRRSNPETIGDGSMLASTSTAVMLQTKKPAVIVEMERRCKIINLLAKQNQILESISGEAIPMHGPSKHLHEDEGLTLQVLSARASTPYTQPSSMLSCTAVSCDLEHDSPRKQVASKEAVPEQQSSQVQQKRPPSTGIHKPGSLRAPKAVRPTTAPVVSSKPVKSYTRSRLMDIRNGMFNALMHRSKESFVMPRIATCDDIELEGRLRRMNIWRTSDGTRFRTRSTTANLNMNNNNNNECMPAFFKNKNKPNLISDESIIQSQPPQPQTEFQDPAIVNQRRIGSGRLNHSKWGYNDEDYHSYHNGKSQHMEEVNSKNSKNMTVLQFFDNGEISSQPQRRPNTPVMGMSINRSENDTLHSNESSEDLSRANENYVKRVMSGFLVVSKPKSRDVEDRHHRRYRNQNEEPEWFSCGPTSRLDTIELCGFDEDEEKMLKEGNKNHGLGETERETSKQKMDHKYKWTHAEPMGRSKYMPKHDTNNNHNVENMNNVMATEHQQQKEEKRPGSGRSFQFDKFNQSQQNYESSSYVNHQQPPQTQPQQMQQQSNTNTNNSKFMSFFANEGNSSSSSLNEFFKQAINQGHGNNPEQPKSLGHIGQMPSVDQLEAKWRRNSLNNVGETANKQTDNFQKLIGSLSSAKPQSQAVGYDAISNFIMQQQQYQQQQQKQHLIIQQQQQHTAFLASLQLKAILGRADTQLLLLRLTKGEISKHGLLVQLANPRLTDMDREAITAVLQFTNTQQQQQQHKQQLDMLSSTVIASQLQNLHNLAIVQQTLAARQQPQHNPQTQAPHQLSQEDLQAHANVIMRNAVMKRKIEEQTSKLINGGAKHQAQQQYLNRGQQRQARPDANSNALLHALISGGGNNHASGYPMNGQPQKHHSNLRFGDNQNFQSFESNQPHFATQYKQQYQQSQQQHPHQQPQQLNSLHQNNAGAVNSFNKAQMQAQSAISMLPNSGDEFH |

Continued, molecule first:

| Molecule | binding [1] | binding [2] | binding [3] |
| --- | --- | --- | --- |
| pAbp (from UniProt P21187 1-634) | binds | – | – |
| Me31B (protein, UniProt P23128 1-459) MMTEKLNSGHTNLTSKGIINDLQIAGNTSDDMGWKSKLKLPPKDNRFKTTDVTDTRGNEFEEFCLKRELLMGIFEKGWERPSPIQEAAIPIALSGKDVLARAKNGTGKTGAYCIPVLEQIDPTKDYIQALVMVPTRELALQTSQICIELAKHLDIRVMVTTGGTILKDDILRIYQKVQLIIATPGRILDLMDKKVADMSHCRILVLDEADKLLSLDFQGMLDHVILKLPKDPQILLFSATFPLTVKNFMEKHLREPYEINLMEELTLKGVTQYYAFVQERQKVHCLNTLFSKLQINQSIIFCNSTQRVELLAKKITELGYCCYYIHAKMAQAHRNRVFHDFRQGLCRNLVCSDLFTRGIDVQAVNVVINFDFPRMAETYLHRIGRSGRFGHLGIAINLITYEDRFDLHRIEKELGTEIKPIPKVIDPALYVANVGASVGDTCNNSDLNNSANEEGNVSK | binds | – | – |
| eIF4E1 (protein, UniProt P48598 1-259) MQSDFHRMKNFANPKSMFKTSAPSTEQGRPEPPTSAAAPAEAKDVKPKEDPQETGEPAGNTATTTAPAGDDAVRTEHLYKHPLMNVWTLWYLENDRSKSWEDMQNEITSFDTVEDFWSLYNHIKPPSEIKLGSDYSLFKKNIRPMWEDAANKQGGRWVITLNKSSKTDLDNLWLDVLLCLIGEAFDHSDQICGAVINIRGKSNKISIWTADGNNEEAALEIGHKLRDALRLGRNNSLQYQLHKDTMVKQGSNVKSIYTL | binds | – | – |
